Patent US10563263B2, “Genetic polymorphisms associated with statin response and cardiovascular diseases, methods of detection and uses thereof” (CELERA CORPORATION, priority 2010, dated 2020)
Further values from the same series stand in other lists.

Test system: CVD (CHD or stroke)
Assay: WOSCOPS: SNP by pravastatin treatment interaction, logistic regression (synergy index), CVD endpoint
Format: in vivo, human
Description: CARE was a secondary prevention trial and WOSCOPS was a primary prevention trial.
The CHD endpoint was defined in the analyses herein of CARE as a composite endpoint of fatal CHD, definite non-fatal MI, or revascularization, and was defined in the analyses herein of WOSCOPS as a composite endpoint of death from CHD, nonfatal MI, or revascularization. In both the CARE and WOSCOPS analyses herein, the CVD endpoint was defined as a composite endpoint of CHD or stroke. […] Revascularization, which can include percutaneous transluminal coronary angioplasty (PTCA), stent placement, and coronary artery bypass graft (CABG), are medical interventions that indicate the presence of CHD.
Cohort and case-only study designs were used to identify SNPs associated with response to statin treatment.
For each SNP, a logistic regression model having treatment status as the dependent variable and SNP as the independent predictor variable was performed, with terms for age, sex and race included in the model as covariates. The anti-log of the regression coefficient corresponding to the SNP is an estimate of the synergy index (SI) (Davis et al., “Imputing gene-treatment interactions when the genotype distribution is unknown using case-only and putative placebo analyses-a new method for the Genetics of Hypertension Associated Treatment (GenHAT) study”, Statistics in Medicine 23: (2004), pages 2413-2427). The SI is a ratio of odds ratios: for example in the CARE and WOSCOPS studies, the SI represents the factor by which the odds-ratio of statin treatment, compared with placebo, among major homozygous individuals is multiplied by in order to obtain the odds-ratio of treatment vs. placebo among heterozygous individuals; and multiplied by a second time to obtain the odds-ratio of treatment vs. placebo in minor homozygous individuals. […] In a randomized clinical trial, genotype and treatment are independent by design.

CC[C@H](C)C(=O)O[C@H]1C[C@H](O)C=C2C=C[C@H](C)[C@H](CC[C@@H](O)C[C@@H](O)CC(=O)O)[C@H]21 [Pravastatin, pravastatin]
OR (rs2063591 allele C DOM, Imputed): 0.6108
OR (rs2095586 allele A DOM, Imputed): 1.458
OR (rs2095606 allele A DOM, Imputed): 0.6502
OR (rs2102374 allele A ADD, Imputed): 0.7364
OR (rs2102374 allele A DOM, Imputed): 0.6065
OR (rs2108426 allele C DOM, Imputed): 0.6887
OR (rs2110664 allele A DOM, Imputed): 1.806
OR (rs2132242 allele A ADD, Imputed): 0.6841
OR (rs2132242 allele A DOM, Imputed): 0.62
OR (rs2158958 allele A DOM, Imputed): 0.6887
OR (rs2158961 allele G DOM, Imputed): 0.7035
OR (rs2163046 allele A DOM, Imputed): 1.511
OR (rs2180286 allele G DOM, Imputed): 0.7195
OR (rs2180684 allele A DOM, Imputed): 1.612
OR (rs2188079 allele C ADD, Imputed): 1.535
OR (rs2190598 allele T DOM, Imputed): 0.6887
OR (rs2190600 allele A DOM, Imputed): 0.6884
OR (rs2224184 allele T DOM, Genotyped): 0.7175
OR (rs2247066 allele A DOM, Imputed): 0.6603
OR (rs2248236 allele C ADD, Imputed): 0.7444
OR (rs2248236 allele C DOM, Imputed): 0.6416
OR (rs2265733 allele C ADD, Imputed): 0.7364
OR (rs2265733 allele C DOM, Imputed): 0.6065
OR (rs2270584 allele A ADD, Imputed): 0.6858
OR (rs2270584 allele A DOM, Imputed): 0.6021
OR (rs2270586 allele A ADD, Imputed): 0.6858
OR (rs2270586 allele A DOM, Imputed): 0.6021
OR (rs2317057 allele T ADD, Imputed): 0.7197
OR (rs2322100 allele T REC, Genotyped): 2.767
OR (rs2322101 allele A REC, Imputed): 2.779
OR (rs2327929 allele G REC, Imputed): 1.493
OR (rs2332844 allele A ADD, Imputed): 1.78
OR (rs2332844 allele A REC, Imputed): 1.78
OR (rs2349170 allele G DOM, Imputed): 1.327
OR (rs2356722 allele G DOM, Imputed): 0.6675
OR (rs2364956 allele T ADD, Imputed): 1.693
OR (rs2373793 allele G ADD, Imputed): 1.58
OR (rs2373793 allele G DOM, Imputed): 1.878
OR (rs2383903 allele G DOM, Imputed): 0.6499
OR (rs2387945 allele G DOM, Imputed): 1.335
OR (rs7032231, allele A (A1), model ADD, Imputed, WOSCOPS): 1.467
OR (rs7067638, allele T (A1), model DOM, Imputed, WOSCOPS): 1.82
OR (rs7077799, allele A (A1), model DOM, Imputed, WOSCOPS): 1.458
OR (rs7082163, allele A (A1), model ADD, Imputed, WOSCOPS): 1.817
OR (rs7082163, allele A (A1), model DOM, Imputed, WOSCOPS): 1.875
OR (rs7089661, allele C (A1), model DOM, Imputed, WOSCOPS): 1.458
OR (rs7101319, allele C (A1), model ADD, Imputed, WOSCOPS): 1.817
OR (rs7101319, allele C (A1), model DOM, Imputed, WOSCOPS): 1.875
OR (rs7134262, allele T (A1), model REC, Imputed, WOSCOPS): 1.627
OR (rs7138300, allele C (A1), model ADD, Imputed, WOSCOPS): 0.7714
OR (rs7138300, allele C (A1), model DOM, Imputed, WOSCOPS): 0.5986
OR (rs7163931, allele G (A1), model REC, Imputed, WOSCOPS): 3.183
OR (rs7171486, allele G (A1), model DOM, Genotyped, WOSCOPS): 0.5774
OR (rs7172611, allele G (A1), model REC, Imputed, WOSCOPS): 3.183
OR (rs7172689, allele T (A1), model REC, Imputed, WOSCOPS): 3.183
OR (rs7180245, allele A (A1), model REC, Imputed, WOSCOPS): 3.183
OR (rs7220603, allele A (A1), model ADD, Genotyped, WOSCOPS): 0.6302
OR (rs7282518, allele T (A1), model ADD, Imputed, WOSCOPS): 1.518
OR (rs7283476, allele T (A1), model ADD, Imputed, WOSCOPS): 0.6337
OR (rs7283476, allele T (A1), model DOM, Imputed, WOSCOPS): 0.6518
OR (rs7298255, allele A (A1), model ADD, Imputed, WOSCOPS): 0.7591
OR (rs7298255, allele A (A1), model DOM, Imputed, WOSCOPS): 0.594
OR (rs7305832, allele C (A1), model REC, Imputed, WOSCOPS): 1.616
OR (rs7392620, allele C (A1), model ADD, Imputed, WOSCOPS): 0.7494
OR (rs7446891, allele G (A1), model DOM, Imputed, WOSCOPS): 0.6887
OR (rs7448641, allele C (A1), model ADD, Imputed, WOSCOPS): 0.309
OR (rs7448641, allele C (A1), model DOM, Imputed, WOSCOPS): 0.309
OR (rs7499402, allele A (A1), model ADD, Genotyped, WOSCOPS): 1.39
OR (rs7529851, allele A (A1), model ADD, Imputed, WOSCOPS): 0.6637
OR (rs7573951, allele G (A1), model ADD, Imputed, WOSCOPS): 0.6931
OR (rs7599198, allele T (A1), model DOM, Imputed, WOSCOPS): 0.5474
OR (rs7600050, allele C (A1), model ADD, Imputed, WOSCOPS): 1.511
OR (rs7607712, allele T (A1), model ADD, Imputed, WOSCOPS): 1.551
OR (rs7607712, allele T (A1), model DOM, Imputed, WOSCOPS): 1.544
OR (rs7621663, allele G (A1), model ADD, Imputed, WOSCOPS): 1.447
OR (rs7621663, allele G (A1), model REC, Imputed, WOSCOPS): 1.785
OR (rs7626584, allele G (A1), model ADD, Imputed, WOSCOPS): 0.5782
OR (rs7684899, allele C (A1), model ADD, Imputed, WOSCOPS): 0.7399
OR (rs7684899, allele C (A1), model DOM, Imputed, WOSCOPS): 0.6359
OR (rs7701604, allele G (A1), model ADD, Imputed, WOSCOPS): 0.309
OR (rs7701604, allele G (A1), model DOM, Imputed, WOSCOPS): 0.309
OR (rs7703676, allele C (A1), model ADD, Imputed, WOSCOPS): 0.309
OR (rs7703676, allele C (A1), model DOM, Imputed, WOSCOPS): 0.309
OR (rs7708491, allele C (A1), model REC, Imputed, WOSCOPS): 0.5862
OR (rs7711358, allele A (A1), model DOM, Imputed, WOSCOPS): 0.7035
OR (rs7719448, allele G (A1), model REC, Imputed, WOSCOPS): 0.5823
OR (rs7724761, allele T (A1), model REC, Imputed, WOSCOPS): 0.5608
OR (rs7742476, allele T (A1), model DOM, Imputed, WOSCOPS): 1.408
OR (rs7762993, allele A (A1), model ADD, Imputed, WOSCOPS): 1.384
OR (rs7762993, allele A (A1), model DOM, Imputed, WOSCOPS): 1.506
OR (rs7767265, allele G (A1), model ADD, Imputed, WOSCOPS): 1.375
OR (rs7767265, allele G (A1), model DOM, Imputed, WOSCOPS): 1.584
OR (rs7768128, allele G (A1), model REC, Imputed, WOSCOPS): 0.4807
OR (rs7771264, allele T (A1), model DOM, Imputed, WOSCOPS): 0.5289
OR (rs7773151, allele C (A1), model DOM, Genotyped, WOSCOPS): 0.5304
OR (rs7773210, allele A (A1), model DOM, Genotyped, WOSCOPS): 0.5304
OR (rs7808536, allele G (A1), model DOM, Imputed, WOSCOPS): 1.939
OR (rs7843510, allele G (A1), model DOM, Genotyped, WOSCOPS): 1.603
OR (rs7902140, Imputed, allele C, ADD model, WOSCOPS): 0.622
OR (rs7921834, Imputed, allele C, DOM model, WOSCOPS): 1.351
OR (rs7939893, Imputed, allele C, ADD model, WOSCOPS): 0.8314
OR (rs7939893, Imputed, allele C, DOM model, WOSCOPS): 0.6782
OR (rs7955901, Imputed, allele C, ADD model, WOSCOPS): 0.7632
OR (rs7955901, Imputed, allele C, DOM model, WOSCOPS): 0.5772
OR (rs7956274, Imputed, allele T, ADD model, WOSCOPS): 0.7489
OR (rs7956274, Imputed, allele T, DOM model, WOSCOPS): 0.571
OR (rs7957932, Imputed, allele G, ADD model, WOSCOPS): 0.7622
OR (rs7957932, Imputed, allele G, DOM model, WOSCOPS): 0.5724
OR (rs7984294, Imputed, allele A, DOM model, WOSCOPS): 1.992
OR (rs7994286, Imputed, allele A, ADD model, WOSCOPS): 0.5714
OR (rs7994286, Imputed, allele A, DOM model, WOSCOPS): 0.5491
OR (rs8038229, Genotyped, allele A, ADD model, WOSCOPS): 0.6055
OR (rs8038229, Genotyped, allele A, DOM model, WOSCOPS): 0.534
OR (rs8043336, Imputed, allele C, REC model, WOSCOPS): 0.3477
OR (rs8054431, Imputed, allele T, DOM model, WOSCOPS): 2.022
OR (rs8066502, Imputed, allele T, DOM model, WOSCOPS): 0.6823
OR (rs8068714, Imputed, allele T, DOM model, WOSCOPS): 0.7037
OR (rs9301653, Imputed, allele T, ADD model, WOSCOPS): 0.5758
OR (rs9301653, Imputed, allele T, DOM model, WOSCOPS): 0.554
